Two molecules from paper PMC3024319 can be followed below.

Amino acid sequences for entries named in this document (tags omitted).
UniProt Q07157: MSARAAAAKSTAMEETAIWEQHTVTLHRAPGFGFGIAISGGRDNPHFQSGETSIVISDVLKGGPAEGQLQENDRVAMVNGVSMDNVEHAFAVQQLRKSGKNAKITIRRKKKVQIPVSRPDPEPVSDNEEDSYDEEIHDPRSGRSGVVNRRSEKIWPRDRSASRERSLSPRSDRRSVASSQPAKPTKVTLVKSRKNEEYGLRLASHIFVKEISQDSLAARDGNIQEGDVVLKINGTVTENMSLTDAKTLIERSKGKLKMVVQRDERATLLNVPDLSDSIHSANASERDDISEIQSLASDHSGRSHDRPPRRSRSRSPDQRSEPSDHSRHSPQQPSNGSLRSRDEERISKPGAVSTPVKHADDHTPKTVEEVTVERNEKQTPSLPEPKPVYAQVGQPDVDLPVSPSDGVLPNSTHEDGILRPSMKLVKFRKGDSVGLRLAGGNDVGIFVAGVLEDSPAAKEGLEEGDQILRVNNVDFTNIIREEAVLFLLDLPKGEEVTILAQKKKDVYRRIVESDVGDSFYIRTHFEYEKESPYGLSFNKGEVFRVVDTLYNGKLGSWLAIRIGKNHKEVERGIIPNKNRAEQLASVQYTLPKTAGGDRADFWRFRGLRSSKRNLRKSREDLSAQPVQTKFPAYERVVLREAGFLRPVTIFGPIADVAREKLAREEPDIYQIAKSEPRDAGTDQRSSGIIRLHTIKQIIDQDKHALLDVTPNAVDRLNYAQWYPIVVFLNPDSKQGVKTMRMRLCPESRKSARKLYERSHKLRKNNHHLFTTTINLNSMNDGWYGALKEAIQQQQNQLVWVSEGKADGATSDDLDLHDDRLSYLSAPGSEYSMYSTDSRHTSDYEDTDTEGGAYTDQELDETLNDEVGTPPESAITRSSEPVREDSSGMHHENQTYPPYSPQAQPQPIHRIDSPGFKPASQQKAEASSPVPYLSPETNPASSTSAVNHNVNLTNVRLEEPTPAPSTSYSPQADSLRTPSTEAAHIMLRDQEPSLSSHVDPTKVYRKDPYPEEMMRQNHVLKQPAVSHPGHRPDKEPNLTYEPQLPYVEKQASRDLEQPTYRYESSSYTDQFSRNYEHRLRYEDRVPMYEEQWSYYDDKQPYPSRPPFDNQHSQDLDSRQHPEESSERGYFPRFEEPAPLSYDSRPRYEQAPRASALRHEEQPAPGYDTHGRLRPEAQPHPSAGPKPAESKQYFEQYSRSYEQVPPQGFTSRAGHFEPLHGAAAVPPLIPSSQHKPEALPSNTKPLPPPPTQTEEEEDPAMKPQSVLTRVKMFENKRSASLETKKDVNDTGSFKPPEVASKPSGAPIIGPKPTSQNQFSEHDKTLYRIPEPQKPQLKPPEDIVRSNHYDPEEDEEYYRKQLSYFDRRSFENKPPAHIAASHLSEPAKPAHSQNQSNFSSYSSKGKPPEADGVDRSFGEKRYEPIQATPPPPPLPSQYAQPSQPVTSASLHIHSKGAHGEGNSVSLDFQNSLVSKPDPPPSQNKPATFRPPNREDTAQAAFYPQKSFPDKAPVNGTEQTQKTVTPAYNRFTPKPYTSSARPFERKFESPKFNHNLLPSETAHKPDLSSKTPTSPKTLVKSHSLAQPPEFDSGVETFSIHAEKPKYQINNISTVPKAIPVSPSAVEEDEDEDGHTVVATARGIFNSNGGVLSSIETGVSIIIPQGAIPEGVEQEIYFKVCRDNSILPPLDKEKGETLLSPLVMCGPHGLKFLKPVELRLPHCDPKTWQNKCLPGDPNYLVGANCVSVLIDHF

Read-outs that look alike come from different tables or passages of the source. These are yes or no findings as the source states them, for the method shown. In cells and extracts the contact can be indirect. Some entries that bind do so weakly or less than the wild type. Sequences can lack the tags named with a protein.

What all share (assay): co-IP; whole cell lysates (400 ug total protein) of w-Bves, parental HCE and t-Bves cells precipitated with Flag antibody (Pierce Seize X Protein G Immunoprecipitation Kit); Western blot for Bves (antibody 846) and ZO-1
In assay [1] the target is T1, Flag-tagged full length chicken Bves (w-Bves) (chicken) (UniProt Q9DG23).
T1 sequence: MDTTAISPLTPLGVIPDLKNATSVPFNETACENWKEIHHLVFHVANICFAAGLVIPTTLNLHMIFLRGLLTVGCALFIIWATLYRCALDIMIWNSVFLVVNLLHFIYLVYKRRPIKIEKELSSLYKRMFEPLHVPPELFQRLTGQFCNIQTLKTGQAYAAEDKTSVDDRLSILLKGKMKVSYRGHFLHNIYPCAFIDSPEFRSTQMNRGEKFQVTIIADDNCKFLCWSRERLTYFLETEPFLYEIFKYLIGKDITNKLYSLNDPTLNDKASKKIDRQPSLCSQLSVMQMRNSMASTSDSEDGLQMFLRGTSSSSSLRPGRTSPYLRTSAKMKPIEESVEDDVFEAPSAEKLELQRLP

Assay [2] deals with T2, Flag-tagged chick Bves truncated at aa214 (t-Bves) (chicken) (UniProt Q9DG23).
T2 sequence: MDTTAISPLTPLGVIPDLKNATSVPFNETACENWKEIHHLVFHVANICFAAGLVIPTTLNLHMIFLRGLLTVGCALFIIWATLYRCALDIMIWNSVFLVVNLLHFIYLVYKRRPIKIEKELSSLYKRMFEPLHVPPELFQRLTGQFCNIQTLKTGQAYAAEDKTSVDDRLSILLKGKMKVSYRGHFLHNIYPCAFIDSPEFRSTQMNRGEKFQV

Assay [3] has as its target T1, Flag-tagged full length chicken Bves (w-Bves) (chicken). This is another data set of the same source.
Assay [4] deals with T2, Flag-tagged chick Bves truncated at aa214 (t-Bves) (chicken). The source holds these as a separate data set.

In the case of ZO-1 (from UniProt Q07157 1-1748), the binding entry in assay [1] is listed as “binds”; in assay [2], “no binding”.

B1: endogenous human Bves (protein, UniProt Q8NE79 1-360)
chain: MNYTESSPLRESTAIGFTPELESIIPVPSNKTTCENWREIHHLVFHVANICFAVGLVIPTTLHLHMIFLRGMLTLGCTLYIVWATLYRCALDIMIWNSVFLGVNILHLSYLLYKKRPVKIEKELSGMYRRLFEPLRVPPDLFRRLTGQFCMIQTLKKGQTYAAEDKTSVDDRLSILLKGKMKVSYRGHFLHNIYPCAFIDSPEFRSTQMHKGEKFQVTIIADDNCRFLCWSRERLTYFLESEPFLYEIFRYLIGKDITNKLYSLNDPTLNDKKAKKLEHQLSLCTQISMLEMRNSIASSSDSDDGLHQFLRGTSSMSSLHVSSPHQRASAKMKPIEEGAEDDDDVFEPASPNTLKVHQLP
For B1, the binding result in assay [3] and in assay [4] was “binds” each time.
